Laboratory results reported in PubChem BioAssay AID540276 (National Center for Advancing Translational Sciences (NCATS), 2011).
Among all 300,000 compounds or so, about 5,400 (1.8%) were called active. Inconclusive means that the source gave no clear call. Such entries were picked first, then a sample of the others. Calls come from the whole dose curve; tested in HEK293 cells. Where the call is inconclusive, the potency comes from a doubtful curve fit.

test: qHTS for inhibitors of binding or entry into cells for Marburg Virus; conditions: Marburg virus pseudotyped entry inhibition, cell reporter; activity change, negative = inhibition: at 37.8 µM (top of the series) unless noted
% is set by controls: 0 for no effect and ±100 for the full control effect; potency is the fitted concentration of half-maximal effect.

For `O=C1CCc2cc(S(=O)(=O)N3CCN(c4cccc(C(F)(F)F)c4)CC3)ccc2N1`, which Potency is on record?
The Potency was inconclusive: 29.1 µM [inhibitor, single point].

Which Potency does the source give for `Nn1c(Cc2cccc3ccccc23)nnc1SCCOc1ccc(F)cc1` here?
The Potency was inconclusive: 14.1 µM [inhibitor, single point].

With `COc1ccc(OC)c(C(c2nnnn2C2CCCC2)N2CCN(c3ccc(F)cc3)CC2)c1` (configuration not stated) as the molecule, how does the Potency read?
The Potency was inconclusive: 35.5 µM [inhibitor, partial curve, poor fit].

For `O=c1c2ccccc2nnn1CSc1nc2sc3c(c2c(=O)n1CC1CCCO1)CCC3` (configuration not stated), which Potency is on record?
The Potency was inconclusive: 32.6 µM [inhibitor, single point].

For `S=c1[nH]nc(-c2cc(-c3ccccc3)n[nH]2)n1/N=C/c1ccc(Cl)cc1`, which Potency is on record?
Its Potency is inconclusive: 3.16 µM [activator, single point].

Which Potency does the source give for `Cc1cc(C)c(S(=O)(=O)N2CCCOC2CNC(=O)C(=O)NCCC2=CCCCC2)c(C)c1` (configuration not stated) here?
The Potency was inconclusive: 0.891 µM [activator, partial curve, poor fit].

Which activity change, negative = inhibition does the source give for `COc1cccc(NC(=O)CCNC(=O)c2ccccc2Cl)c1` here?
The activity change, negative = inhibition was inconclusive: 44.2% [activator] [at 46.1 µM].

Which “activity change, negative = inhibition” value does the source give for `C/C(=N\NC(=O)c1cc(C)oc1C)c1ccc(N2CCOCC2)cc1` here?
The value was inactive: 0.611% [at 46.1 µM].

With `c1cnc2nc3c4ccccc4c4ccccc4c3nc2c1` as the molecule, how does the Potency read?
Its Potency is inconclusive: 2 µM [activator, partial curve, poor fit].

Which Potency does the source give for `COCCN1C(=O)NC(CCc2ccccc2)C(C(=O)OC)=C1C` (configuration not stated) here?
The Potency was inconclusive: 2.37 µM [activator, partial curve, poor fit].

With `O=C(N/N=C/c1ccoc1)c1ccc(Cl)cc1Cl` as the molecule, how does the “activity change, negative = inhibition” value read?
Its value is inactive: -2.57% [at 46.1 µM].

With `O=[N+]([O-])c1ccc2nc(-c3ccccc3)n(OCc3ccc(Cl)cc3)c2c1` as the molecule, how does the “activity change, negative = inhibition” value read?
Its value is inactive: -12.5%.

For `Cc1ccc(S(=O)(=O)Nc2nc(-c3ccc(F)cc3)cs2)cc1`, which “activity change, negative = inhibition” value is on record?
The value was inactive: 3.9% [at 46.1 µM].

With `CC(=O)c1c(C)[nH]c(C(=O)CSc2nnc(-c3ccc(Cl)cc3)n2CC2CCCO2)c1C` (configuration not stated) as the molecule, how does the Potency read?
Its Potency is inconclusive: 1.26 µM [inhibitor, partial curve, poor fit].

With `CCn1ncc(Br)c1C(=O)Nc1ccc(Cl)cn1` as the molecule, how does the “activity change, negative = inhibition” value read?
The value was inactive: 3.58%.

For `Cc1cnccc1CN(C)Cc1cn(C)nc1-c1cccc(Cl)c1`, which Potency is on record?
The Potency was inconclusive: 35.5 µM [inhibitor, partial curve, poor fit].

With `CCCCn1c(SCC(=O)N2CCCC2)nc2cc(S(N)(=O)=O)ccc21` as the molecule, how does the Potency read?
Its Potency is inconclusive: 2.82 µM [activator, single point].

Which Potency does the source give for `CCCCSc1nnc(-c2ccc(C)cc2)c2ccccc12` here?
The Potency was inconclusive: 3.55 µM [activator, partial curve, poor fit].

With `Nc1ncc2c(n1)-c1cc(Cl)ccc1SC2` as the molecule, how does the Potency read?
The Potency was inconclusive: 31.6 µM [activator, partial curve, poor fit].

Which “activity change, negative = inhibition” value does the source give for `CC(C)NC(=O)c1sc2nc3c(c(-c4cccs4)c2c1N)CN(C)CC3` here?
Its value is inactive: -0.991%.

With `COCCN(Cc1cc2cc3c(cc2nc1Cl)OCO3)C(=O)Nc1ccc(F)cc1` as the molecule, how does the Potency read?
Its Potency is inconclusive: 23.1 µM [inhibitor, single point].

For `Cc1ccc(NC(=O)C2CCCN(S(=O)(=O)c3cccnc3)C2)c(C)c1` (configuration not stated), which “activity change, negative = inhibition” value is on record?
Its value is inactive: -12.9% [at 46.1 µM].

With `CNC(=O)c1ccc(-c2ccccc2)s1` as the molecule, how does the Potency read?
Its Potency is inconclusive: 0.112 µM [activator, full curve, poor fit].

With `CCOC(=O)c1ccc(NC(=O)CSc2ccc(-c3cccnc3)nn2)cc1` as the molecule, how does the Potency read?
Its Potency is inconclusive: 11.2 µM [inhibitor, partial curve, poor fit].

For `O=C(NCc1ccccc1Cl)c1ccc(S(=O)(=O)NCc2ccco2)cc1`, which Potency is on record?
The Potency was inconclusive: 5.62 µM [inhibitor, single point].

With `Cc1ccc2c(c1)nnn2C1CCN(S(=O)(=O)c2ccc(C(=O)NC3CCCC3)cc2)CC1` as the molecule, how does the Potency read?
Its Potency is inconclusive: 0.1 µM [activator, full curve, poor fit].

Which “activity change, negative = inhibition” value does the source give for `O=C(NCC(c1ccco1)N1CCc2ccccc21)c1c(F)cccc1F` (configuration not stated) here?
The value was inactive: -20% [at 46.1 µM].

With `CCCCNC(=O)C1CCN(C(=O)C2CCN(S(=O)(=O)c3ccc(C)cc3)CC2)CC1` as the molecule, how does the Potency read?
The Potency was inconclusive: 6.31 µM [activator, single point].

With `CC1=C(c2ccc(C)cc2)[N+](=O)C(C)(C)N1[O-]` as the molecule, how does the Potency read?
Its Potency is “inactive”.

For `Cc1ccc(NP(=O)(Nc2ccc(C)cc2)Oc2ccccc2)cc1`, which Potency is on record?
Its Potency is inconclusive: 1.26 µM [inhibitor, full curve, poor fit].

With `COC(=O)c1ccc(CNC(=O)COC(=O)CC23CC4CC(CC(Br)(C4)C2)C3)cc1` as the molecule, how does the “activity change, negative = inhibition” value read?
The value was inactive: -11.3%.

Which Potency does the source give for `O=S(=O)(c1ccc(Br)cc1)N1CCCN(Cc2cccc(F)c2)CC1` here?
The Potency was inconclusive: 0.0891 µM [activator, full curve, poor fit].

Which Potency does the source give for `Cc1ccc(-n2c(SCC(=O)Nc3ccc4cn[nH]c4c3)nnc2-c2ccco2)cc1` here?
Its Potency is inconclusive: 12.6 µM [inhibitor, partial curve, poor fit].

For `C=CCn1c(C)nnc1SCC(=O)c1[nH]c(C)c(C(C)=O)c1C`, which “activity change, negative = inhibition” value is on record?
The value was inactive: 1.16%.

With `Cc1ccc(NC(=O)c2oc3ccccc3c2C)nc1` as the molecule, how does the Potency read?
The Potency was inconclusive: 35.5 µM [inhibitor, single point].

For `CC(NC(=O)CCC(=O)N1CCN(S(=O)(=O)c2ccc(Cl)cc2)CC1)c1ccccc1` (configuration not stated), which Potency is on record?
Its Potency is inconclusive: 0.562 µM [inhibitor, full curve, poor fit].

Which “activity change, negative = inhibition” value does the source give for `CC(=O)n1nc(-c2cccnc2)nc1NCc1ccc(F)cc1` here?
Its value is inactive: 3.53% [at 46.1 µM].

Which Potency does the source give for `CC12CC[C@H]3[C@@H](CCC4(O)C[C@H](O)CCC34/C=N/NC(=O)c3ccccc3O)C1(O)CCC2C1=CC(=O)OC1` (some centres not stated) here?
Its Potency is inconclusive: 6.31 µM [inhibitor, full curve, poor fit].

For `CCCn1nc(C(=O)NNC(=O)c2cccc(S(=O)(=O)NC(C)C)c2)c2ccccc2c1=O`, which “activity change, negative = inhibition” value is on record?
Its value is inactive: -5.11%.

Which Potency does the source give for `N#Cc1ccc(C(=O)Nc2nnc(-c3ccco3)o2)cc1` here?
The Potency was inconclusive: 35.5 µM [inhibitor, single point].

With `Cc1cccc(N2C(=O)CCC2=O)c1` as the molecule, how does the Potency read?
Its Potency is inconclusive: 17.8 µM [activator, single point].

Which Potency does the source give for `O=C1C2CCCCN2C(=O)N1CCCCN1CCN(c2ccc([N+](=O)[O-])cc2)CC1` (configuration not stated) here?
Its Potency is inconclusive: 20 µM [inhibitor, single point].
